Here are results for 39 sequences from publication PMC7862700.

The chains behind the UniProt entries cited, without tags or fusion partners. Where a name states a change or a piece, a line headed by the entry shows the natural chain unless it says otherwise.
UniProt Q00613: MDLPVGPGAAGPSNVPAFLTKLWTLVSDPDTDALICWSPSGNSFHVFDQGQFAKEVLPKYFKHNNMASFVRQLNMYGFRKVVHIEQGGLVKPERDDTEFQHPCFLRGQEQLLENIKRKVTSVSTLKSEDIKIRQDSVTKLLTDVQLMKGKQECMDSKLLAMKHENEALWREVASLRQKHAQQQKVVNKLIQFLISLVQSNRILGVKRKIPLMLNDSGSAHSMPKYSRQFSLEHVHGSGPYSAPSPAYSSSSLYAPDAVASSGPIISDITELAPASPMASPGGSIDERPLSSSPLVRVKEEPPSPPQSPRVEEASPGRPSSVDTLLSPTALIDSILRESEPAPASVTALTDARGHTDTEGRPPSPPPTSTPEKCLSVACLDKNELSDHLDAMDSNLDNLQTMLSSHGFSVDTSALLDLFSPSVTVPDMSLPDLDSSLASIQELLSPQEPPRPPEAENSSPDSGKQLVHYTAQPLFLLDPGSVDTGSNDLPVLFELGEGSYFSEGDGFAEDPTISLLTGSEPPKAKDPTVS

Only a part is listed here, and it is no random draw. For part of these data: At the low end of the ranking, values are background and their order means little. Some of the results follow. For part of these data: Construct or isoform of the protein are uncertain.

One experiment has as its target HSF1 (UniProt Q00613). Put plainly: DAPPL (digital affinity profiling via proximity ligation, sequencing). The settings on record: 10 mM Tris-HCl pH 7.5, 50 mM NaCl, 1 mM DTT, 4% glycerol, room temperature, 30 min; GST-TFs on glutathione beads, 16-mer random dsDNA library, 0.1% …; high values mean tight binding; double strand, one strand shown; scale: fold enrichment (6-mer frequency, TF over GST control).
Consider GCCAGT, for which the binding signal amounted to 0.295.
On the same count and under the same terms, to CGTGCG belongs 0.585; to TAGAGG, 0.939.
Same read-out and setting: to CCAGTA belongs 0.902; to AGCGAG, 0.627; to AGGAGA, 0.239.
On the same count and under the same terms, to GGCAAG belongs 0.589; to AACGAG, 0.847.
The sequence AGGGTA had a binding signal of 0.848.
Same read-out and setting: to CACAGT belongs 0.626.
As to ACCAGG, the binding signal was 0.578.
Still for that read-out and setting: under GTCATA stands 0.636; under GGAGGC, 0.216; under TAGGAG, 0.438.
Same read-out and setting: under CAAGGA stands 0.711; under GGAGAG, 0.266.
The same measure, in the same setting: to GGGTTA belongs 0.798; to GACGAT, 0.952; to AGCAAG, 0.903.
GAAGAG yielded a binding signal of 0.735.
On the same count and under the same terms, under CGAGGG stands 0.657.
AGTGCG had a binding signal of 0.695.
As to GACGCT, the binding signal came out at 0.668.
GGAAGG showed a binding signal of 0.636.
For CAGTCT, the binding signal is 0.774.
Turning to GCATAA, the binding signal was 0.899.
Still for that read-out and setting: under CGCGAG stands 0.584; under TGGGTC, 0.519; under GAGTTG, 0.397.
Regarding GATGAG, the binding signal turned out to be 0.748.
Sequence GCGCAG showed a binding signal of 0.708.
AGACCC had a binding signal of 0.634.
Same read-out and setting: to ACCAGA belongs 1.55.
Turning to ACAGTC, the binding signal is 0.416.
ACGGTC had a binding signal of 0.641.
With CGCATA, the binding signal was determined as 0.656.
For CGGGAA, the binding signal came out at 0.999.
Still for that read-out and setting: under CGCAAG stands 0.795; under AAGGCG, 0.577.

Another experiment concerns the target T1, ELF2 (UniProt Q15723).
T1 sequence: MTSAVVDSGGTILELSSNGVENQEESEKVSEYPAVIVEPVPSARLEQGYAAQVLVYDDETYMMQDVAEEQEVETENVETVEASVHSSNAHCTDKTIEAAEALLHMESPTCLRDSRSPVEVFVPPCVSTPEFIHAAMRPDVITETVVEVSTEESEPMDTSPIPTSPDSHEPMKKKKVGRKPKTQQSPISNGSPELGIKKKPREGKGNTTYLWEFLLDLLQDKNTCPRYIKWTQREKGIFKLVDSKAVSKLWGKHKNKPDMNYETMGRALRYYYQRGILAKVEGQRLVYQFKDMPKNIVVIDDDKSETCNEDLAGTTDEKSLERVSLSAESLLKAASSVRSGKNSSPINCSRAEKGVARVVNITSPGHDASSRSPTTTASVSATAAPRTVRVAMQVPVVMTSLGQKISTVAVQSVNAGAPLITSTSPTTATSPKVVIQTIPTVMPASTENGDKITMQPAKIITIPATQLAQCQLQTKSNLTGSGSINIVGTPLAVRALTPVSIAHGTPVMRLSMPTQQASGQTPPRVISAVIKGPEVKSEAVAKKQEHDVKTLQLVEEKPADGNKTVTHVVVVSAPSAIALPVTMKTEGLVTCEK
Described as above. The settings on record: 10 mM Tris-HCl pH 7.5, 50 mM NaCl, 1 mM DTT, 4% glycerol, room temperature, 30 min; GST-TFs on glutathione beads, 16-mer random dsDNA library, 0.1% …; high values mean tight binding; double strand, one strand shown; scale: fold enrichment (6-mer frequency, TF over GST control).
In turn, GCCAGT yielded a binding signal of 0.302.
The sequence CGTGCG showed a binding signal of 0.652.
Still for that read-out and setting: to TAGAGG belongs 0.789.
In turn, CCAGTA came in with a binding signal of 0.671.
Same read-out and setting: to AGCGAG belongs 0.611; to AGGAGA, 0.205.
On the same count and under the same terms, to GGCAAG belongs 0.677; to AACGAG, 0.779.
The same measure, in the same setting: under AGGGTA stands 0.835; under CACAGT, 0.705; under ACCAGG, 0.866.
In turn, GTCATA displayed a binding signal of 0.729.
The same measure, in the same setting: to GGAGGC belongs 0.239.
The sequence TAGGAG yielded a binding signal of 0.377.
The same measure, in the same setting: to CAAGGA belongs 0.791; to GGAGAG, 0.265; to GGGTTA, 0.819.
On the same count and under the same terms, under GACGAT stands 0.844.
On the same count and under the same terms, to AGCAAG belongs 0.916.
As for GAAGAG, the binding signal stood at 1.06.
Same read-out and setting: under CGAGGG stands 0.615; under AGTGCG, 0.908; under GACGCT, 0.77.
GGAAGG registered a binding signal of 1.04.
For CAGTCT, the binding signal stood at 0.697.
On the same count and under the same terms, under GCATAA stands 0.854; under CGCGAG, 0.505; under TGGGTC, 0.624.
As for GAGTTG, the binding signal stood at 0.497.
Still for that read-out and setting: to GATGAG belongs 0.775; to GCGCAG, 0.763.
For AGACCC, the binding signal was 0.73.
Take ACCAGA: the binding signal came to 0.876.
ACAGTC came in with a binding signal of 0.422.
The same measure, in the same setting: to ACGGTC belongs 0.722; to CGCATA, 0.739.
On the same count and under the same terms, under CGGGAA stands 0.856.
The same measure, in the same setting: to CGCAAG belongs 0.79; to AAGGCG, 0.7.
